Test results as given in publication PMC3945225, “RBPJ, the Major Transcriptional Effector of Notch Signaling, Remains Associated with Chromatin throughout Mitosis, Suggesting a Role in Mitotic Bookmarking”.
Results are given in words; binding and its absence hold for the method and conditions named. Binding seen in cells or lysates may run through a third protein. Some binding calls cover weakened binding; strength is not graded here.

Sequences of proteins named here, by UniProt entry; tags and fusion partners are left off. A change or cut given only in a name is not applied to a line headed by its entry. A line that says so, or that is headed by a name, gives the form on record, which may keep a tag or linker.
Flag-tagged RBPJ (P31266, form named): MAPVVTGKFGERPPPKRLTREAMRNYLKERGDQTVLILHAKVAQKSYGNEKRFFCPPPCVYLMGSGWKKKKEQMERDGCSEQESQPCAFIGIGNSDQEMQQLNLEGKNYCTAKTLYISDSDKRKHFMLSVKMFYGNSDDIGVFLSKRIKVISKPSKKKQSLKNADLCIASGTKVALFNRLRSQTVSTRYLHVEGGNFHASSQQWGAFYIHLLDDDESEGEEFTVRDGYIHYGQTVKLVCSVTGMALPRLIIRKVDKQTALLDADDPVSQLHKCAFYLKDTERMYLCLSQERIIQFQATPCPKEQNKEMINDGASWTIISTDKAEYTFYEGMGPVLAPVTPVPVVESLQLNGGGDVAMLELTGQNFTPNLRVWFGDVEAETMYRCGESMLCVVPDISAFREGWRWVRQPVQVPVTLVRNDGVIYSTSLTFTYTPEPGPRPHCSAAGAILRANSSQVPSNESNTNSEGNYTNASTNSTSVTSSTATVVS

Molecular target: Flag-tagged RBPJ (mouse) (UniProt P31266)
Assay: pull-down; Flag-tagged protein from 293T lysate bound overnight to anti-Flag (M2) agarose at 4°C, washed four times with PBS/0.05% Triton X-100, then incubated overnight with F9 cell lysate; four washes, eluted with Laemmli buffer, western blot (the methods head it 'Co-IP'); only the target …

B1: endogenous CTCF (CCCTC-binding factor) (protein, UniProt Q61164 1-736)
chain: MEGEAVEAIVEESETFIKGKERKTYQRRREGGQEEDACHLPQNQTDGGEVVQDVNSSVQMVMMEQLDPTLLQMKTEVMEGTVAPEAEAAVDDTQIITLQVVNMEEQPINIGELQLVQVPVPVTVPVATTSVEELQGAYENEVSKEGLAESEPMICHTLPLPEGFQVVKVGANGEVETLEQGELPPQEDSSWQKDPDYQPPAKKTKKTKKSKLRYTEEGKDVDVSVYDFEEEQQEGLLSEVNAEKVVGNMKPPKPTKIKKKGVKKTFQCELCSYTCPRRSNLDRHMKSHTDERPHKCHLCGRAFRTVTLLRNHLNTHTGTRPHKCPDCDMAFVTSGELVRHRRYKHTHEKPFKCSMCDYASVEVSKLKRHIRSHTGERPFQCSLCSYASRDTYKLKRHMRTHSGEKPYECYICHARFTQSGTMKMHILQKHTENVAKFHCPHCDTVIARKSDLGVHLRKQHSYIEQGKKCRYCDAVFHERYALIQHQKSHKNEKRFKCDQCDYACRQERHMIMHKRTHTGEKPYACSHCDKTFRQKQLLDMHFKRYHDPNFVPAAFVCSKCGKTFTRRNTMARHADNCAGPDGVEGENGGETKKSKRGRKRKMRSKKEDSSDSEENAEPDLDDNEEEEEPAVEIEPEPEPQPQPPPPPQPVAPAPPPAKKRRGRPPGRTNQPKQNQPTAIIQVEDQNTGAIENIIVEVKKEPDAEPAEGEEEEAQAATTDAPNGDLTPEMILSMMDR
B1 was tested. Which binding did it give?
Its binding is “binds”.
